Here are results for two molecules from doi:10.1101/2024.04.16.589460.

The chains behind the UniProt entries cited, without tags or fusion partners.
UniProt P46937: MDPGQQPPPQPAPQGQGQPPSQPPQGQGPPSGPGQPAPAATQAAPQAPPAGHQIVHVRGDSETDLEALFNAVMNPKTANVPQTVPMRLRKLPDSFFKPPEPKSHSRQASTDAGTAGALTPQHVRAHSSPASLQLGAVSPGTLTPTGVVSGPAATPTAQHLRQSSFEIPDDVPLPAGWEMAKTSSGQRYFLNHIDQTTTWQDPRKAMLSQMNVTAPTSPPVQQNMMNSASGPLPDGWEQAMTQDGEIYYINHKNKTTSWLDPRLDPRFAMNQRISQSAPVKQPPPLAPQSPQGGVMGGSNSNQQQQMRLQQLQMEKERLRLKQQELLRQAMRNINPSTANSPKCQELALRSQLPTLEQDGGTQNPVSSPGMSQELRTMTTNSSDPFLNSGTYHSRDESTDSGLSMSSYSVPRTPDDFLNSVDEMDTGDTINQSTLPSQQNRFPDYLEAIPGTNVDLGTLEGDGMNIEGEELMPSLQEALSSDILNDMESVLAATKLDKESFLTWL

No constants are given. Whether binding was seen depends on the method and setting. In cells and extracts the contact can be indirect. Some results given as binding are weak or reduced against the parent protein; the word gives no strength.

The target of assay [1] is T1, SAM pointed domain-containing ETS transcriptional factor (SPDEF) (human (endogenous in SKBR3)) (UniProt O95238).
T1 sequence: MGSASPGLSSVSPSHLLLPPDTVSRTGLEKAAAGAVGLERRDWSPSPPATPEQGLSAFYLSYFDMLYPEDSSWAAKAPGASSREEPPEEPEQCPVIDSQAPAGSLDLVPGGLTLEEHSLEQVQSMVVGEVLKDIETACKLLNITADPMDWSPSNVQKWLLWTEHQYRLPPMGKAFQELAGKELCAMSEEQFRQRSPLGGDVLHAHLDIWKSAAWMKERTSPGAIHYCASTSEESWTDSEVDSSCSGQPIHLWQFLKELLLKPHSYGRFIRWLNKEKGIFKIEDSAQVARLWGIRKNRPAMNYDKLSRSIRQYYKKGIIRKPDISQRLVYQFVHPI
Put plainly: proximity ligation.

The target in assay [2] is YAP (human (endogenous in SKBR3)) (UniProt P46937). As to the kind of experiment: proximity ligation.

B1: Forkhead box protein A1 (FOXA1) (protein, UniProt P55317 1-472)
chain: MLGTVKMEGHETSDWNSYYADTQEAYSSVPVSNMNSGLGSMNSMNTYMTMNTMTTSGNMTPASFNMSYANPGLGAGLSPGAVAGMPGGSAGAMNSMTAAGVTAMGTALSPSGMGAMGAQQAASMNGLGPYAAAMNPCMSPMAYAPSNLGRSRAGGGGDAKTFKRSYPHAKPPYSYISLITMAIQQAPSKMLTLSEIYQWIMDLFPYYRQNQQRWQNSIRHSLSFNDCFVKVARSPDKPGKGSYWTLHPDSGNMFENGCYLRRQKRFKCEKQPGAGGGGGSGSGGSGAKGGPESRKDPSGASNPSADSPLHRGVHGKTGQLEGAPAPGPAASPQTLDHSGATATGGASELKTPASSTAPPISSGPGALASVPASHPAHGLAPHESQLHLKGDPHYSFNHPFSINNLMSSSEQQHKLDFKAYEQALQYSPYGSTLPASLPLGSASVTTRSPIEPSALEPAYYQGVYSRPVLNTS
Regarding B1, the binding result in assay [1] is listed as “binds”.

B2: TRPS1 (protein, UniProt Q9UHF7 1-1281)
chain: MVRKKNPPLRNVASEGEGQILEPIGTESKVSGKNKEFSADQMSENTDQSDAAELNHKEEHSLHVQDPSSSSKKDLKSAVLSEKAGFNYESPSKGGNFPSFPHDEVTDRNMLAFSSPAAGGVCEPLKSPQRAEADDPQDMACTPSGDSLETKEDQKMSPKATEETGQAQSGQANCQGLSPVSVASKNPQVPSDGGVRLNKSKTDLLVNDNPDPAPLSPELQDFKCNICGYGYYGNDPTDLIKHFRKYHLGLHNRTRQDAELDSKILALHNMVQFSHSKDFQKVNRSVFSGVLQDINSSRPVLLNGTYDVQVTSGGTFIGIGRKTPDCQGNTKYFRCKFCNFTYMGNSSTELEQHFLQTHPNKIKASLPSSEVAKPSEKNSNKSIPALQSSDSGDLGKWQDKITVKAGDDTPVGYSVPIKPLDSSRQNGTEATSYYWCKFCSFSCESSSSLKLLEHYGKQHGAVQSGGLNPELNDKLSRGSVINQNDLAKSSEGETMTKTDKSSSGAKKKDFSSKGAEDNMVTSYNCQFCDFRYSKSHGPDVIVVGPLLRHYQQLHNIHKCTIKHCPFCPRGLCSPEKHLGEITYPFACRKSNCSHCALLLLHLSPGAAGSSRVKHQCHQCSFTTPDVDVLLFHYESVHESQASDVKQEANHLQGSDGQQSVKESKEHSCTKCDFITQVEEEISRHYRRAHSCYKCRQCSFTAADTQSLLEHFNTVHCQEQDITTANGEEDGHAISTIKEEPKIDFRVYNLLTPDSKMGEPVSESVVKREKLEEKDGLKEKVWTESSSDDLRNVTWRGADILRGSPSYTQASLGLLTPVSGTQEQTKTLRDSPNVEAAHLARPIYGLAVETKGFLQGAPAGGEKSGALPQQYPASGENKSKDESQSLLRRRRGSGVFCANCLTTKTSLWRKNANGGYVCNACGLYQKLHSTPRPLNIIKQNNGEQIIRRRTRKRLNPEALQAEQLNKQQRGSNEEQVNGSPLERRSEDHLTESHQREIPLPSLSKYEAQGSLTKSHSAQQPVLVSQTLDIHKRMQPLHIQIKSPQESTGDPGNSSSVSEGKGSSERGSPIEKYMRPAKHPNYSPPGSPIEKYQYPLFGLPFVHNDFQSEADWLRFWSKYKLSVPGNPHYLSHVPGLPNPCQNYVPYPTFNLPPHFSAVGSDNDIPLDLAIKHSRPGPTANGASKEKTKAPPNVKNEGPLNVVKTEKVDRSTQDELSTKCVHCGIVFLDEVMYALHMSCHGDSGPFQCSICQHLCTDKYDFTTHIQRGLHRNNAQVEKNGKPKE
In the case of B2, the binding result in assay [2] was “binds”.
